Source: patent US12491217B2, “Compositions and methods for promoting healthy neural development in an unborn baby” (The Regents of the University of California, priority 2019, dated 2025)

Assay: Metabolomics of fetal brain at E14.5
Format: in vivo, C57Bl/6J mice
[1] = metabolite level in E14.5 fetal brain, ANOVA contrast ABX/SPF
[2] = metabolite level in E14.5 fetal brain, ANOVA contrast GF/ABX
[3] = metabolite level in E14.5 fetal brain, ANOVA contrast GF/SPF
[4] = metabolite level in E14.5 fetal brain, ANOVA contrast GF/Sp
[5] = metabolite level in E14.5 fetal brain, ANOVA contrast Sp/ABX
[6] = metabolite level in E14.5 fetal brain, ANOVA contrast Sp/SPF
[7] = E14.5 fetal brain metabolite level, ANOVA contrast ABX vs SPF
[8] = E14.5 fetal brain metabolite level, ANOVA contrast GF vs ABX
[9] = E14.5 fetal brain metabolite level, ANOVA contrast GF vs SPF
[10] = E14.5 fetal brain metabolite level, ANOVA contrast GF vs Sp
[11] = E14.5 fetal brain metabolite level, ANOVA contrast Sp vs ABX
[12] = E14.5 fetal brain metabolite level, ANOVA contrast Sp vs SPF

Row | SMILES | fold of change ABX/SPF [1] | fold of change GF/ABX [2] | fold of change GF/SPF [3] | fold of change GF/Sp [4] | fold of change Sp/ABX [5] | fold of change Sp/SPF [6] | fold of change ABX/SPF [7] | fold of change GF/ABX [8] | fold of change GF/SPF [9] | fold of change GF/Sp [10] | fold of change Sp/ABX [11] | fold of change Sp/SPF [12]
1 | O=C(O)/C=C/C(=O)O [compound 1167] | 0.78 | 0.99 | 0.77 | 0.98 | 1.01 | 0.78 | – | – | – | – | – | –
2 | O=C(O)CC(O)C(=O)O (stereo not drawn) [compound 1169] | 0.81 | 0.98 | 0.80 | 0.90 | 1.09 | 0.88 | – | – | – | – | – | –
3 | CC(=O)OP(=O)(O)O [compound 1181] | 0.93 | 1.16 | 1.08 | 1.00 | 1.16 | 1.08 | – | – | – | – | – | –
4 | O=P(O)(O)O [compound 1183] | 0.89 | 0.78 | 0.70 | 0.76 | 1.02 | 0.92 | – | – | – | – | – | –
5 | CCCCCC(=O)O [compound 1201] | 1.09 | 0.87 | 0.95 | 0.81 | 1.08 | 1.18 | – | – | – | – | – | –
6 | CCCCCCCC(=O)O [compound 1203] | 1.06 | 0.97 | 1.03 | 1.22 | 0.80 | 0.84 | – | – | – | – | – | –
7 | CCCCCCCCC(=O)O [compound 1204] | 1.41 | 0.99 | 1.40 | 1.24 | 0.80 | 1.13 | – | – | – | – | – | –
8 | CCCCCCCCCC(=O)O [compound 1205] | 0.96 | 1.17 | 1.13 | 1.23 | 0.96 | 0.92 | – | – | – | – | – | –
9 | CCCCCCCCCCCCCCCC(=O)O [compound 1217] | 0.95 | 0.81 | 0.77 | 1.02 | 0.79 | 0.75 | – | – | – | – | – | –
10 | CCCCCC/C=C\CCCCCCCC(=O)O [compound 1218] | 0.86 | 0.73 | 0.62 | 0.92 | 0.79 | 0.68 | – | – | – | – | – | –
11 | CCCCCCCCCCCCCCCCCC(=O)O [compound 1223] | 0.96 | 0.87 | 0.84 | 1.08 | 0.81 | 0.78 | – | – | – | – | – | –
12 | CCCCCCCCCCCCCCCCCCCC(=O)O [compound 1236] | 0.97 | 0.82 | 0.80 | 1.22 | 0.68 | 0.65 | – | – | – | – | – | –
13 | CCCCCCCC/C=C\CCCCCCCCCC(=O)O [compound 1239] | – | – | – | – | – | – | 0.84 | 0.80 | 0.67 | 1.02 | 0.79 | 0.66
14 | CCCCCCCC/C=C\CCCCCCCCCCCC(=O)O [compound 1244] | – | – | – | – | – | – | 1.17 | 0.61 | 0.72 | 1.16 | 0.53 | 0.62
15 | CCCCCCCC/C=C\CCCCCCCCCCCCCC(=O)O [compound 1247] | – | – | – | – | – | – | 0.85 | 0.62 | 0.52 | 0.87 | 0.71 | 0.60
16 | CCCCC/C=C\C/C=C\CCCCCC(=O)O [compound 1253] | – | – | – | – | – | – | 0.86 | 0.96 | 0.82 | 1.09 | 0.88 | 0.76
17 | CC/C=C\C/C=C\C/C=C\C/C=C\C/C=C\CCCC(=O)O [compound 1258] | – | – | – | – | – | – | 0.99 | 0.55 | 0.54 | 0.89 | 0.61 | 0.60
18 | CC/C=C\C/C=C\C/C=C\C/C=C\C/C=C\CCCCCC(=O)O [compound 1259] | – | – | – | – | – | – | 0.98 | 0.43 | 0.42 | 0.89 | 0.49 | 0.47

Row | SMILES | fold of change ABX/SPF [1] | fold of change GF/ABX [2] | fold of change GF/SPF [3] | fold of change GF/Sp [4] | fold of change Sp/ABX [5] | fold of change Sp/SPF [6] | fold of change ABX/SPF [7] | fold of change GF/ABX [8] | fold of change GF/SPF [9] | fold of change GF/Sp [10] | fold of change Sp/ABX [11] | fold of change Sp/SPF [12]
19 | CC/C=C\C/C=C\C/C=C\C/C=C\C/C=C\C/C=C\CCC(=O)O [compound 1260] | – | – | – | – | – | – | 0.77 | 0.48 | 0.37 | 0.87 | 0.56 | 0.43
20 | CC/C=C\C/C=C\C/C=C\C/C=C\C/C=C\C/C=C\CCCCC(=O)O [compound 1264] | – | – | – | – | – | – | 1.03 | 0.31 | 0.32 | 0.83 | 0.37 | 0.38
21 | CCCCC/C=C\C/C=C\CCCCCCCC(=O)O [compound 1265] | – | – | – | – | – | – | 0.89 | 0.61 | 0.54 | 1.11 | 0.55 | 0.49
22 | CCCCC/C=C\C/C=C\C/C=C\C/C=C\CCCC(=O)O [compound 1270] | – | – | – | – | – | – | 0.77 | 0.54 | 0.42 | 0.93 | 0.58 | 0.45
23 | CCCCC/C=C\C/C=C\C/C=C\C/C=C\CCCCCC(=O)O [compound 1271] | – | – | – | – | – | – | 0.87 | 0.65 | 0.57 | 0.93 | 0.71 | 0.61
24 | CCCCC/C=C\C/C=C\C/C=C\C/C=C\C/C=C\CCC(=O)O [compound 1272] | – | – | – | – | – | – | 0.78 | 0.63 | 0.49 | 0.96 | 0.66 | 0.51
25 | CCCCC/C=C\C/C=C\CCCCCCCCCCCC(=O)O [compound 1273] | – | – | – | – | – | – | 0.83 | 0.79 | 0.65 | 1.25 | 0.63 | 0.52
26 | CCCCC/C=C\C/C=C\CCCCCCCCCC(=O)O [compound 1274] | – | – | – | – | – | – | 0.88 | 0.60 | 0.53 | 1.04 | 0.58 | 0.51
27 | CCCCCCCC/C=C\C/C=C\C/C=C\CCCC(=O)O [compound 1276] | – | – | – | – | – | – | 1.09 | 0.45 | 0.49 | 0.95 | 0.47 | 0.51
28 | CCCCC/C=C\C/C=C\C/C=C\CCCCCCCCC(=O)O [compound 1277] | – | – | – | – | – | – | 0.94 | 0.60 | 0.57 | 1.14 | 0.52 | 0.50
29 | O=C(O)CCCC(=O)O [compound 1351] | – | – | – | – | – | – | 0.68 | 1.20 | 0.81 | 0.83 | 1.45 | 0.98
30 | O=C(O)CCC(O)C(=O)O (stereo not drawn) [compound 1355] | – | – | – | – | – | – | 0.77 | 1.03 | 0.79 | 1.01 | 1.02 | 0.79
31 | O=C(O)CCCC(O)C(=O)O (stereo not drawn) [compound 1359] | – | – | – | – | – | – | 0.72 | 0.98 | 0.70 | 0.95 | 1.03 | 0.74
32 | O=C(O)CCC(O)CC(=O)O (stereo not drawn) [compound 1360] | – | – | – | – | – | – | 0.80 | 1.29 | 1.03 | 1.17 | 1.10 | 0.88
33 | O=C(O)/C=C\C(=O)O [compound 1363] | – | – | – | – | – | – | 0.85 | 1.11 | 0.94 | 1.08 | 1.02 | 0.87
34 | O=C(O)CCCCCCCCC(=O)O [compound 1372] | – | – | – | – | – | – | 1.08 | 0.94 | 1.02 | 1.18 | 0.80 | 0.86
35 | CCCCCC(N)C(=O)O (stereo not drawn) [compound 1430] | – | – | – | – | – | – | 0.73 | 1.22 | 0.89 | 1.12 | 1.09 | 0.80
